The record followed here is article PMC11430399, “Cold-induced degradation of core clock proteins implements temperature compensation in the Arabidopsis circadian clock” (Science Advances, 2024).

Protein sequences, listed by entry. Tags and fused reporters are not part of them.
UniProt Q9C9W9: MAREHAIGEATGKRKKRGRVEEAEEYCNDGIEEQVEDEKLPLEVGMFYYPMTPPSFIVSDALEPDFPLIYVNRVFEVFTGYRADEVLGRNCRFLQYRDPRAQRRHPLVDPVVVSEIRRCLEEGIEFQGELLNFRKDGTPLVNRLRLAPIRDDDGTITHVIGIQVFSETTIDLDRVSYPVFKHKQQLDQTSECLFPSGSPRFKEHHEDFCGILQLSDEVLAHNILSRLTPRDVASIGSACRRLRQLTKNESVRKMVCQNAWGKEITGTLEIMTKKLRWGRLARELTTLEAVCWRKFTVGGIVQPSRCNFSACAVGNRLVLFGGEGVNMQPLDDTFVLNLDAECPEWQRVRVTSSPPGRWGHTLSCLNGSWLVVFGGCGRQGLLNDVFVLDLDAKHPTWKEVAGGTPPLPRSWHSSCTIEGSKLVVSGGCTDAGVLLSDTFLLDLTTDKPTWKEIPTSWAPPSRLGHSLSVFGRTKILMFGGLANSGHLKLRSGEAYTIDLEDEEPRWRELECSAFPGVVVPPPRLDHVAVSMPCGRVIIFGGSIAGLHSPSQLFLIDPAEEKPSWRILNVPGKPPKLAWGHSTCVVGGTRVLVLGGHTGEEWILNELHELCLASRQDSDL
UniProt Q8W420: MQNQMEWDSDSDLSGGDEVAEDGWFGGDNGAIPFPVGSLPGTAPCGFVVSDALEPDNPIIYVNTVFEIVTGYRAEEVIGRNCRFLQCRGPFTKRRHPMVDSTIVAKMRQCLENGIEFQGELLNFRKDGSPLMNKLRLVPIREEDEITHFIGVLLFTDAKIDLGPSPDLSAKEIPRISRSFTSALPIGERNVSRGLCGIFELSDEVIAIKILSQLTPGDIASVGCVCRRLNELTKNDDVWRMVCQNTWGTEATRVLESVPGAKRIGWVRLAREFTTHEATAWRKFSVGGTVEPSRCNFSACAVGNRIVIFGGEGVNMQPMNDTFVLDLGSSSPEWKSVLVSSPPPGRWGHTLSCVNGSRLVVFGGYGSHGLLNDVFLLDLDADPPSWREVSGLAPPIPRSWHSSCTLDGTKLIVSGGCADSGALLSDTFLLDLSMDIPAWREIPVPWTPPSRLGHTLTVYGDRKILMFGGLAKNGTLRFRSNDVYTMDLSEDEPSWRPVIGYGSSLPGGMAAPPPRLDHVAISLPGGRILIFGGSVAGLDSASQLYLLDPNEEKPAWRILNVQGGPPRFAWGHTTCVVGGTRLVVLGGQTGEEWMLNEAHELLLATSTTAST
UniProt Q94BT6: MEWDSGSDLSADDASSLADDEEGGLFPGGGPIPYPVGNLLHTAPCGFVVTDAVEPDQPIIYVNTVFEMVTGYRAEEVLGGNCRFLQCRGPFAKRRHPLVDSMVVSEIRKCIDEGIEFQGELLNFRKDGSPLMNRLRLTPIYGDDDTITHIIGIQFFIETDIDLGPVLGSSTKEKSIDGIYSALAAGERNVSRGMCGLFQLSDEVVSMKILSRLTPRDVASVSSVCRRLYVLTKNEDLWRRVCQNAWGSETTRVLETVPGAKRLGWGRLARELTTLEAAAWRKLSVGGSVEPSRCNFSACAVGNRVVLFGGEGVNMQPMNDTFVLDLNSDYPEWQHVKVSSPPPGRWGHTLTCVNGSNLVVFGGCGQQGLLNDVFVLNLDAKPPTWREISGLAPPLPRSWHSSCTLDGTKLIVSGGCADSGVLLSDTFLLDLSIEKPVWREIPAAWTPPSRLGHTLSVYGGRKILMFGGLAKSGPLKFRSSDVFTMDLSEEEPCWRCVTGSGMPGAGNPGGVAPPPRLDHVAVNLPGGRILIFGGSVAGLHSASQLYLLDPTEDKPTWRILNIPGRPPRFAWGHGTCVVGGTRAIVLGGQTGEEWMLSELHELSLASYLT

Results are given in words; binding and its absence hold for the method and conditions named. In cells and extracts the contact can be indirect. A yes stands for co-enrichment or nearness to the bait. Other partners may have been found. A no says only that the protein was not detected with the bait. Where a sequence is shown, tags or fusion partners need not be part of it.

For assay [1], the target named is T1, PSEUDO-RESPONSE REGULATOR 5 with a C-terminal triple FLAG tag (PRR5-FLAG) (Arabidopsis thaliana) (UniProt Q6LA42).
T1 sequence: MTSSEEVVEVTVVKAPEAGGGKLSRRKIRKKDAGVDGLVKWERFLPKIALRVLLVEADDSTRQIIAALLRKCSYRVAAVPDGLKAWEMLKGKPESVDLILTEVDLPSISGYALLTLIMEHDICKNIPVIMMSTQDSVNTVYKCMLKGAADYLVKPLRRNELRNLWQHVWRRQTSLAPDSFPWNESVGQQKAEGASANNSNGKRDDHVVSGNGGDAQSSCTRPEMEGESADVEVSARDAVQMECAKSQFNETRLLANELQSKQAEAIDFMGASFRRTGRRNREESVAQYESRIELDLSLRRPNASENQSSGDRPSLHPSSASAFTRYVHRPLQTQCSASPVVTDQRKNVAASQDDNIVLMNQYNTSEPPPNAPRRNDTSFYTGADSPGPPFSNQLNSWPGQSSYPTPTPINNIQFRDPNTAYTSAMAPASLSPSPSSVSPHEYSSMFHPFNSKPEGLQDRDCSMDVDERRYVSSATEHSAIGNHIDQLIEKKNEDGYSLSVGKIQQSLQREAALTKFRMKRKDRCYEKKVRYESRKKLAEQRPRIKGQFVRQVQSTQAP
The experiment in a line: affinity purification with mass spectrometry; anti-FLAG antibody on Dynabeads Protein G, 2 hours at 4°C, from extracts of 35Sp:TOC1-F or 35Sp:PRR5-F seedlings treated with 100 uM MG132 and kept at 12° or 28°C for 1 day; lysis I buffer 50 mM tris-HCl pH 7.5, 100 mM NaCl, 0.1% Triton X-100; on-bead Lys-C/trypsin digest, nano-LC-MS/MS; three biological replicates.

Assay [2] deals with T2, TIMING OF CAB EXPRESSION 1 with a C-terminal triple FLAG tag (TOC1-FLAG) (Arabidopsis thaliana) (UniProt Q9LKL2).
T2 sequence: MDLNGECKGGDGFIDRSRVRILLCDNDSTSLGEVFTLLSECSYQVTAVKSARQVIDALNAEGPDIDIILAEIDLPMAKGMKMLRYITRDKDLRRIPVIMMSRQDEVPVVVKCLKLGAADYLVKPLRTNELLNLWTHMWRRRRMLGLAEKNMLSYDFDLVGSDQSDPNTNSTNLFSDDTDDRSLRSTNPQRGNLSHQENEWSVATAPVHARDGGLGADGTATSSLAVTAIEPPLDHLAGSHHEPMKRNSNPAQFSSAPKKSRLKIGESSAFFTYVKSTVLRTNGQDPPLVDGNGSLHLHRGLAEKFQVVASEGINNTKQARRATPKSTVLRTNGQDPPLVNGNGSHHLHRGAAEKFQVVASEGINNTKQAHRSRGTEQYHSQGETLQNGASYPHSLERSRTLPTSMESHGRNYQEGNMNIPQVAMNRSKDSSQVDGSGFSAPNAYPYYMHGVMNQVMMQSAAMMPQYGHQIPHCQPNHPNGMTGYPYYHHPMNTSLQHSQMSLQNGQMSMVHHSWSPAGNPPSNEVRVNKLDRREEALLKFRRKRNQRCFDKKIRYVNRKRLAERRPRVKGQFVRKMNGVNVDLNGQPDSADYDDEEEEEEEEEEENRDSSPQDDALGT
The description is as above.

Regarding “FLAVIN-BINDING, KELCH REPEAT, F-BOX 1 (endogenous) (from UniProt Q9C9W9 1-619)”, the binding entry in assay [1] and in assay [2] was “no binding” throughout.

For “LOV KELCH PROTEIN 2 (endogenous) (from UniProt Q8W420 1-611)”, the binding result in assay [1] and in assay [2] was “binds” throughout.

“ZEITLUPE (endogenous) (from UniProt Q94BT6 1-609)”: the binding result in assay [1] and in assay [2] was “binds” in each case.
